Source: article doi:10.1101/2022.06.15.495552
No constants are given. Whether binding was seen depends on the method and setting. For part of these data: In cells and extracts the contact can be indirect. Some entries that bind do so weakly or less than the wild type.

Protein sequences, listed by entry. Tags and fused reporters are not part of them. Residues count along the entry.
UniProt Q12905, 29-390: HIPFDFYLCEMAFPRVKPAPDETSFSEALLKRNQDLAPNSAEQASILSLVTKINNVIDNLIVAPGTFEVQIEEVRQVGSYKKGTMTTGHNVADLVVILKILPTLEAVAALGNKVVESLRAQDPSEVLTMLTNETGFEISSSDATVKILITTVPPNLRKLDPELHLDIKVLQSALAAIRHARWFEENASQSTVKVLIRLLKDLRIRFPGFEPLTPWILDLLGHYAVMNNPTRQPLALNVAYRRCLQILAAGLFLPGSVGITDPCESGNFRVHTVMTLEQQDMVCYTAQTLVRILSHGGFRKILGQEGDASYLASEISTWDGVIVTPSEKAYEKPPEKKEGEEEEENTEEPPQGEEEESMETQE
UniProt Q12905, whole entry: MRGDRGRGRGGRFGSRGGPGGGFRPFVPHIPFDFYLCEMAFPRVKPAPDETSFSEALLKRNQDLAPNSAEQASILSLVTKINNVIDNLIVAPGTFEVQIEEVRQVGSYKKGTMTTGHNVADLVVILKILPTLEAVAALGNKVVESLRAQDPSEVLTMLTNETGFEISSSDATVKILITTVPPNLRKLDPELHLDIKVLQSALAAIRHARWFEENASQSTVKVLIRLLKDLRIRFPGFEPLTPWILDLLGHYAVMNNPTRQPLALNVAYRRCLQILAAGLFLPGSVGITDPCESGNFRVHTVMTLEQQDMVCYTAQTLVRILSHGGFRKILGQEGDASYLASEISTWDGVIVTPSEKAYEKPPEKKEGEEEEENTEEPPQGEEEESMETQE
UniProt Q96KR1, 317-1074: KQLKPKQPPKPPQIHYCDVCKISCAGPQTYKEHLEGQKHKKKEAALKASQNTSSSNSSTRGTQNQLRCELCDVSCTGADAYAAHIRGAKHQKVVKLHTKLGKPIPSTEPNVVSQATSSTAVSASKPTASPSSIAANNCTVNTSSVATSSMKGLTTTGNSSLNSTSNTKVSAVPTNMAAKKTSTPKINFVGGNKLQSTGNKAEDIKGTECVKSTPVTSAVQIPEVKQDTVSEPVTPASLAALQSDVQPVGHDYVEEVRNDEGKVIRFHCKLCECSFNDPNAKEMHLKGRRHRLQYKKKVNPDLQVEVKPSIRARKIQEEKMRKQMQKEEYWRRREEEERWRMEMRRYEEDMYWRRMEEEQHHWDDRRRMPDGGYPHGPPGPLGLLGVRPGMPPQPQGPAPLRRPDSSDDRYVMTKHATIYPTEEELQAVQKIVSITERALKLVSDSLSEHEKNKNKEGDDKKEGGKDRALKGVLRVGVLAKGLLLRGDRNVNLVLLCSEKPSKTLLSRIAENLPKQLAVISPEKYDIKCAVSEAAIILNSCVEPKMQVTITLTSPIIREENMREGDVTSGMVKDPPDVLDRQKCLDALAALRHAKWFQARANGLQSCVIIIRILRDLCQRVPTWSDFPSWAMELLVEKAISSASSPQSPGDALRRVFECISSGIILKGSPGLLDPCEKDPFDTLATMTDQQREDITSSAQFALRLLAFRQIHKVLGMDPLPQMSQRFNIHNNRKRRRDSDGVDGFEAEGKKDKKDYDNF
UniProt Q96KR1, 725-1074: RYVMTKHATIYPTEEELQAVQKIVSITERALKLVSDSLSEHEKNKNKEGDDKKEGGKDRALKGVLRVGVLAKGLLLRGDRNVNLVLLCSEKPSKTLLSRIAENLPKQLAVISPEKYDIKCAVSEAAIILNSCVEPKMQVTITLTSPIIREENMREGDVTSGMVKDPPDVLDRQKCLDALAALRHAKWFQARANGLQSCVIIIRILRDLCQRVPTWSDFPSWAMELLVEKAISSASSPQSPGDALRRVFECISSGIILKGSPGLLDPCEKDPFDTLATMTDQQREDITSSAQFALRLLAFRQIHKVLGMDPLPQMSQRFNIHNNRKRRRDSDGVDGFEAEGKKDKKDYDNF
UniProt Q96KR1, whole entry: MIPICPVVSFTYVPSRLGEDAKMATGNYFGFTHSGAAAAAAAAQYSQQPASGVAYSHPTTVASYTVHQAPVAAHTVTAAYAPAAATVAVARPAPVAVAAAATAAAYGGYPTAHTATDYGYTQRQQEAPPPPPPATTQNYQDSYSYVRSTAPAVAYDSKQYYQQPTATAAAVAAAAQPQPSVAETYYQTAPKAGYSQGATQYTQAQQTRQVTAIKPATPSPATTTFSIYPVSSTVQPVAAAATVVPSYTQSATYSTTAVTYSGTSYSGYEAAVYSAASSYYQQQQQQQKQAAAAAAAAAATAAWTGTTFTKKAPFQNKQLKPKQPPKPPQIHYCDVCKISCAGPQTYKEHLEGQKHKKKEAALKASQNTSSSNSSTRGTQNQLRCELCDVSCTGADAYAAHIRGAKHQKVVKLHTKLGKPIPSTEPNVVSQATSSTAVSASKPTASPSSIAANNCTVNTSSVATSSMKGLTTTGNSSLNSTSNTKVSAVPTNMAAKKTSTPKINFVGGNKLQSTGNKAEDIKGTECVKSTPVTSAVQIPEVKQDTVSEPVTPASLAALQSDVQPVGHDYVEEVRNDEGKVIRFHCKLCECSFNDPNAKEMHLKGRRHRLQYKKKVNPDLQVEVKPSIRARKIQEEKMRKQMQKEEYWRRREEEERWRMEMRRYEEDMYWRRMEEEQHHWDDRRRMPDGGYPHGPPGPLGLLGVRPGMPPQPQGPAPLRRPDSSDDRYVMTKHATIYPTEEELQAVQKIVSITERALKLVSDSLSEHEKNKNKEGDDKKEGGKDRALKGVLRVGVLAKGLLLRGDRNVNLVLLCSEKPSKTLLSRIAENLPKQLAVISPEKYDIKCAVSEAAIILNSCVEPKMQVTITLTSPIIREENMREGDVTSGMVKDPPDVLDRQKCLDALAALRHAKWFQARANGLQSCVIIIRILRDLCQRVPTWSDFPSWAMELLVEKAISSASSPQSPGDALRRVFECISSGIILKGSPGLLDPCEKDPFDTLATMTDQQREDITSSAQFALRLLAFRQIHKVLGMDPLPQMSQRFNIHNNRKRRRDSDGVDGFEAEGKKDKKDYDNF

Experiments:
3XFLAG-ILF2 (human) = 3XFLAG-ILF2 (human) (UniProt Q12905); experiment: co-IP
ILF2_(29-390) (human) = ILF2_(29-390) (human) (UniProt Q12905); experiment: SEC

| Substance | binding (3XFLAG-ILF2 (human)) | binding (ILF2_(29-390) (human)) |
| --- | --- | --- |
| endogenous ZFR (from UniProt Q96KR1 1-1074) | binds | – |
| ZFR_(long) (residues 317-1074) (from UniProt Q96KR1 317-1074) (domain or fragment) | – | binds |
| ZFRDZF (residues 725-1074) (from UniProt Q96KR1 725-1074) (domain or fragment) | – | binds |
